Data as given in PubChem BioAssay AID602196 (INSERM, 2012).

- Aim: 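Genes whose knock-down alters cisplatin killing of lung cancer cells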
- Cell system: human A549 lung cancer cells
- Knock-down reagent: siRNA pair against human genes
- Timing: 48 h transfection before cisplatin; time from cisplatin to read-out not stated
- Treatment: cisplatin at a dose killing half of control-siRNA cells; exact dose and duration not given
- Read-out: 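Cisplatin cell death as a shift from the 50% death seen with control siRNA; siRNAs toxic or growth-blocking alone scored 0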
- Scale: two-siRNA summed score (-2 to +2): higher = both siRNAs protect from cisplatin killing; -2 means both sensitise
- Call rule: 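siRNAs harmful alone (LDH or WST-1) get 0; others get +1 for less and -1 for more cisplatin killing; genes are active when the two siRNAs give the same sign, summing to ±2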
- Meaning of the calls: active = both siRNAs shift cisplatin killing the same way; inactive = no consistent shift, or siRNA harmful alone
This is one part, drawn at random, of about 23,000 reagents. 455 of all reagents (2%) count as active. 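Active includes both protection and sensitisation; some change values fall well beyond the stated -50 to +50 range.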 Reagents against one gene are numbered here. Further read-outs or replicates are left out here. Not given: the amount of reagent.

LATS1 showed two-siRNA summed score (-2 to +2) = 2; active.
Depletion of LOC440469 resulted in: two-siRNA summed score (-2 to +2) = 0; inactive.
Against ERVV-1, the entry reads two-siRNA summed score (-2 to +2) = 1; inactive.
Against PRR34, the values are two-siRNA summed score (-2 to +2) = 0; inactive.
AMPH gave two-siRNA summed score (-2 to +2) = 0; inactive.
For LGALS1 the deposit lists two-siRNA summed score (-2 to +2) = 0; inactive.
LOC400768 (retired record) showed two-siRNA summed score (-2 to +2) = 1; inactive.
PSMB4 showed two-siRNA summed score (-2 to +2) = 0; inactive.
After knock-down of CRISP3, the record shows two-siRNA summed score (-2 to +2) = 0; inactive.
Knock-down of LOC389747 gave: two-siRNA summed score (-2 to +2) = 1; inactive.
MYL6P5 scored two-siRNA summed score (-2 to +2) = 0; inactive.
LOC151256 scored two-siRNA summed score (-2 to +2) = 0; inactive.
Depletion of HAMP came out at: two-siRNA summed score (-2 to +2) = 0; inactive.
For ATRNL1, the entry reads two-siRNA summed score (-2 to +2) = -1; inactive.
Silencing of GFM2 gave: two-siRNA summed score (-2 to +2) = 0; inactive.
Silencing of LOC391062 gave: two-siRNA summed score (-2 to +2) = 0; inactive.
Knock-down of LOC340267 came out at: two-siRNA summed score (-2 to +2) = 0; inactive.
Knock-down of C8A gave: two-siRNA summed score (-2 to +2) = -1; inactive.
With knock-down of EXT2, the screen gave two-siRNA summed score (-2 to +2) = 0; inactive.
CKS2 scored two-siRNA summed score (-2 to +2) = 0; inactive.
After knock-down of LOC387946, the record shows two-siRNA summed score (-2 to +2) = 0; inactive.
Depletion of KRT18 came out at: two-siRNA summed score (-2 to +2) = 0; inactive.
After knock-down of LOC389127, the record shows two-siRNA summed score (-2 to +2) = 1; inactive.
Depletion of MRPL30 resulted in: two-siRNA summed score (-2 to +2) = 0; inactive.
For TIGD1, the entry reads two-siRNA summed score (-2 to +2) = 0; inactive.
GEMIN4 showed two-siRNA summed score (-2 to +2) = 0; inactive.
Knock-down of PRAMEF7 came out at: two-siRNA summed score (-2 to +2) = 0; inactive.
Against LOC201501 the deposit lists two-siRNA summed score (-2 to +2) = 0; inactive.
After knock-down of TAAR9, the screen gave two-siRNA summed score (-2 to +2) = 0; inactive.
LOC93429 showed two-siRNA summed score (-2 to +2) = 0; inactive.
For MT1F #1, the entry reads two-siRNA summed score (-2 to +2) = 0; inactive.
Against MT1F #2 the deposit lists two-siRNA summed score (-2 to +2) = 0; inactive.
With knock-down of OMD, the record shows two-siRNA summed score (-2 to +2) = 0; inactive.
Against CDK6 the deposit lists two-siRNA summed score (-2 to +2) = 1; inactive.
Knock-down of CEP70 resulted in: two-siRNA summed score (-2 to +2) = 0; inactive.
Depletion of PGBD1 gave: two-siRNA summed score (-2 to +2) = 1; inactive.
After knock-down of PLEKHA8, the record shows two-siRNA summed score (-2 to +2) = 0; inactive.
Silencing of TMEM86A gave: two-siRNA summed score (-2 to +2) = 0; inactive.
Silencing of SNX16 resulted in: two-siRNA summed score (-2 to +2) = 0; inactive.
GPR150 showed two-siRNA summed score (-2 to +2) = 1; inactive.

Records listed above called active:
LATS1: two-siRNA summed score (-2 to +2) = 2; outcome = active
